Measurements from patent publication US20090305266A1, “TEST FOR OVARIAN CANCER BY DETECTING ABNORMALITY IN FANCD2 PATHWAY” (priority 2006, published 2009).
Some entries share one result that the patent states for a list of compounds.

Tested on: ovarian surface epithelium (OSE) cells
Assay: MMC/DEB-induced chromosomal breakage and radial formation in primary ovarian epithelial cell cultures
Format: cell-based, human
Details: epithelial cells from all normal ovarian samples
Experimental: The ovarian cells were scraped from the ovarian surface and enzymatically disaggregated with Collagenase I (GIBCO-Invitrogen, Grand Island, N.Y.) for 4 hours. The cells were washed in RPMI 1640 medium (GIBCO-Invitrogen) and plated in 25 cm^2 flasks coated with collagen in RPMI 1640 supplemented with 20% FCS (Hyclone, Logan, Utah), 10 μg/ml insulin (Sigma, St. Louis, Mo.) and 10 ng/ml EGF (R&D Systems, Minneapolis, Minn.). Studies were performed on primary cells and immortalized cells. Ovarian cells were immortalized by transduction with a retrovirus expressing SV40 large T-antigen obtained from cell line Ψ-2/U195 (Saito et al., Mutat. Res. 294:255-62, 1993; Williams et al., Mol. Cell Bio. 8:3864-71, 1988). SV40-transformed ovarian epithelial cells were transduced with pMMP retroviral vectors containing full-length FANCD2 cDNA produced from the AM12/RVD2 cell line (Naf et al., Mol. Cell Biol. 18:5952-60, 1998; Kuang et al., Blood 96:1625-32, 2000).
These cultures were then harvested after a 2 hour exposure to 0.25 μg/ml Colcemid (Sigma). Following a 10 minute treatment with hypotonic solution (0.075 M KCl, 5% fetal calf serum) the cells were fixed with a 3:1 mixture of methanol:acetic acid. Slides were stained with Wright's stain, and breaks and radial formation was assessed by counting the number of breaks and radials in a representative number of cells.

C1OC1C1CO1 (stereo not shown) [DEB, Diepoxybutane]
MMC- and DEB-induced radial formation: < 20 % metaphases
